{"source": "patent US8735167B2", "about": "“Photoinduced signal amplification through externally sensitized photofragmentation in masked photosensitizers and photoamplified fluorescence turn-off system” (Colorado Seminary, which owns and operates The University …, priority 2007, dated 2014)", "experiment": "Photoamplified fluorescence quenching of p-terphenyl (turn-off assay)"}
{"smiles": "O=C(c1ccccc1)c1ccccc1", "note": "[benzophenone]", "values": [{"measurement": "fluorescence quenching of p-terphenyl, control without photoamplification", "setting": "4% N-n-octadecylurea organogel in t-BuPh, p-terphenyl 2×10^−5M, BP 10^−6M", "value": "no significant fluorescence quenching without photoamplification"}, {"measurement": "fluorescence quenching of p-terphenyl, control without photoamplification", "setting": "CH2Cl2, p-terphenyl 2×10^−5 M, BP 10^−4 M, no adduct", "value": "no quenching without photoamplification"}, {"measurement": "fluorescence quenching of p-terphenyl, control without photoamplification", "setting": "t-BuPh, p-terphenyl 2×10^−5 M, BP 10^−4 M, no adduct", "value": "no quenching without photoamplification"}]}
